Results deposited as PubChem BioAssay AID504784 (Drosophila RNAi Screening Center, 2011).
In all, the deposit lists about 17,000 reagents; below is an unselected part of those that have a named target and a result. 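Each column is one replicate's B-score; the combined score over replicates was not deposited, so single values may mislead.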 Names joined by + are all predicted targets of the reagent. Not all columns of the deposit are shown. No sequences are given here.

Screen: 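Search for regulators of lipid droplet storage in oleate-fed fly cells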 (primary screen)
Cells: Drosophila Kc167 embryonic cells
Reagent: long dsRNA against Drosophila genes, about 250 ng dsRNA per well
Duration: 4 days
Treatment: cells fed 400 µM oleic acid bound to BSA
Read-out: 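Microscope images give a droplet-to-nucleus area ratio, taken as log and converted to a screen-wide B-score; higher values mean greater lipid storage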
Direction: droplet/nuclear area B-score: higher = more stored lipid (overstorage)

cerv [DRSC19681] → droplet/nuclear area B-score, replicate 1: 0.918
CG30398 [DRSC03891] → droplet/nuclear area B-score, replicate 1: 0.306
su(r) [DRSC18705] → droplet/nuclear area B-score, replicate 1: 0.516
CG12723 [DRSC19499] → droplet/nuclear area B-score, replicate 1: -1.64
Mad1 [DRSC07561] → droplet/nuclear area B-score, replicate 1: -2.06
POLDIP2 [DRSC12194] → droplet/nuclear area B-score, replicate 1: 1.96
CG30184 [DRSC22277] → droplet/nuclear area B-score, replicate 1: -0.0566
ScsbetaG [DRSC11294] → droplet/nuclear area B-score, replicate 1: 1.64
slv [DRSC07685] → droplet/nuclear area B-score, replicate 1: -0.0814
eIF2A [DRSC11825] → droplet/nuclear area B-score, replicate 1: 0.433
Helz [DRSC11072] → droplet/nuclear area B-score, replicate 1: -0.351
CG13223 [DRSC06344] → droplet/nuclear area B-score, replicate 1: 1.4
mRpL42 [DRSC06235] → droplet/nuclear area B-score, replicate 1: 2.37
CG18269 [DRSC02660] → droplet/nuclear area B-score, replicate 1: -0.664
IRSp53 [DRSC10891] → droplet/nuclear area B-score, replicate 1: 0.252
CG14853 [DRSC14977] → droplet/nuclear area B-score, replicate 1: 1.61
CG14853 [DRSC21528] → droplet/nuclear area B-score, replicate 1: -0.48
CG11498 [DRSC14315] → droplet/nuclear area B-score, replicate 1: -1.63
fd19B [DRSC20688] → droplet/nuclear area B-score, replicate 1: -2.1
CG5357 (retired record) [DRSC04497] → droplet/nuclear area B-score, replicate 1: -0.121
CG42613 [DRSC13332] → droplet/nuclear area B-score, replicate 1: -0.0253
CG42613 [DRSC14769] → droplet/nuclear area B-score, replicate 1: -0.118
CG42613 [DRSC15802] → droplet/nuclear area B-score, replicate 1: 1.41
CG13837 [DRSC14687] → droplet/nuclear area B-score, replicate 1: -0.595
Vap33 [DRSC18384] → droplet/nuclear area B-score, replicate 1: -0.309
l(3)73Ah + CG32163 [DRSC21888] → droplet/nuclear area B-score, replicate 1: 4.11
Ktl [DRSC14270] → droplet/nuclear area B-score, replicate 1: 0.00408
CkIIalpha-i3 [DRSC08651] → droplet/nuclear area B-score, replicate 1: -0.378
CG15741 [DRSC19707] → droplet/nuclear area B-score, replicate 1: -1.08

Already shown: an excerpt of the list.
cerv [DRSC19681] → droplet/nuclear area B-score, replicate 1: 0.918
CG30398 [DRSC03891] → droplet/nuclear area B-score, replicate 1: 0.306
su(r) [DRSC18705] → droplet/nuclear area B-score, replicate 1: 0.516
CG12723 [DRSC19499] → droplet/nuclear area B-score, replicate 1: -1.64
Mad1 [DRSC07561] → droplet/nuclear area B-score, replicate 1: -2.06
POLDIP2 [DRSC12194] → droplet/nuclear area B-score, replicate 1: 1.96
CG30184 [DRSC22277] → droplet/nuclear area B-score, replicate 1: -0.0566

Additional records follow.
Syx16 [DRSC20507] → droplet/nuclear area B-score, replicate 1: -0.753
CG11807 [DRSC06087] → droplet/nuclear area B-score, replicate 1: 2.79
spag [DRSC04717] → droplet/nuclear area B-score, replicate 1: 0.0352
CG9281 [DRSC20179] → droplet/nuclear area B-score, replicate 1: -0.403
CG14891 [DRSC15013] → droplet/nuclear area B-score, replicate 1: -1.21
SLIRP1 + anox [DRSC20542] → droplet/nuclear area B-score, replicate 1: -1.02
CG11110 [DRSC06037] → droplet/nuclear area B-score, replicate 1: 1.56
Syt14 [DRSC12331] → droplet/nuclear area B-score, replicate 1: 0.0867
kto [DRSC10983] → droplet/nuclear area B-score, replicate 1: -1.13
CG4069 [DRSC10396] → droplet/nuclear area B-score, replicate 1: -0.393
Cndp2 [DRSC04873] → droplet/nuclear area B-score, replicate 1: 0.00499
CG43795 [DRSC04192] → droplet/nuclear area B-score, replicate 1: 0.722
CG43795 [DRSC04193] → droplet/nuclear area B-score, replicate 1: -0.255
CG43795 [DRSC04194] → droplet/nuclear area B-score, replicate 1: 0.514
CG43795 [DRSC04309] → droplet/nuclear area B-score, replicate 1: -2.71
CG43795 [DRSC04310] → droplet/nuclear area B-score, replicate 1: -0.884
CG43795 [DRSC22826] → droplet/nuclear area B-score, replicate 1: -0.784
Rpn12 [DRSC11275] → droplet/nuclear area B-score, replicate 1: 0.816
CG5080 [DRSC00677] → droplet/nuclear area B-score, replicate 1: 0.08
CG33325 [DRSC12699] → droplet/nuclear area B-score, replicate 1: 0.0125
CG11885 [DRSC00329] → droplet/nuclear area B-score, replicate 1: -2.09
fzo [DRSC16954] → droplet/nuclear area B-score, replicate 1: -0.619
